From PubChem BioAssay AID1508600 (Functional Genomics Laboratory (NCATS/FGL), 2020)
Hit rate of the full screen: of about 53,000 sequences, about 3,700 (7%) were called active.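 Rule for the calls: active = gene knockdowns whose robust z-score for IL-1 alpha signal is at least 2 or at most -2, so actives lie on both sides; inactive = the rest.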 Some of the results follow.

Experiment: Components of the Cytosolic LPS Sensing Pathway: Gene Identification via Genome-wide siRNA Screen;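 note: robust z of the log signal after scaling to non-targeting control siRNA wells of the plate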
Conditions: RAW264.7 macrophages, IL-1a HTRF, actives lie on both sides, screened at 100 nM (by protocol), cells primed 5 h with Pam3CSK4 first
Summary of the method: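 Cells (RAW264.7, 1×10^4 per well) were transfected with siRNA at 100 nM and cultured 48h at 37 degrees C. Pam3CSK4 was added for 5 hours; LipidA transfection followed for 24 hour. IL-1a was then measured by HTRF.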

Q: For GGAUACGAUUGAACGGCUGTT against Rac3, which z-score is on record?
A: inactive: -0.566

Q: With GCAUCACCAAGACUCGGAATT against Sun2 as the sequence, how does the z-score read?
A: inactive: 0.9

Q: For CCAUACUUAUGCCAGCCUGTT against Tfeb, which z-score is on record?
A: inactive: 0.162

Q: With GGAAGAGAUAAGAAGAGAGTT against Faim as the sequence, how does the z-score read?
A: inactive: 1.57

Q: For GGUCUAAAAUUGUGCUAAATT against Klhl32, which z-score is on record?
A: inactive: 0.877

Q: For GGCGAGAAAUUCUUCACAUTT against Plxna3, which z-score is on record?
A: inactive: -1.51

Q: For GCAUCACUGCCACAGUGCATT against Olfr159, which z-score is on record?
A: inactive: -0.133

Q: Which z-score does the source give for GGCCGAUAUGGUGUUUAGATT against Tomm40l here?
A: inactive: 1.61

Q: Which z-score does the source give for GGCUAUUACCAUGGCCACUTT against Smim5 here?
A: active: -2.85

Q: Which z-score does the source give for GCAGUGUUGAGACCAACAUTT against C1qtnf3 here?
A: inactive: -0.875

Q: For GCAGAUUGAAUCAUCCAUGTT against Zc3hc1, which z-score is on record?
A: inactive: -0.625

Q: With CGGUUCUGGGAAUUCUUUGTT against Olfr624 as the sequence, how does the z-score read?
A: active: -2.11

Q: With UUUGAACAGUCACUCCUCGTT against Ipcef1 as the sequence, how does the z-score read?
A: active: 2.18

Q: For GGGAUGCAGUAAAUGUGUATT against Acaa1a, which z-score is on record?
A: inactive: 0.00646

Q: With “GCUGUAGUUCCCUGGCCUATT against 2310057N15Rik” as the sequence, how does the z-score read?
A: inactive: -0.423

Q: For CCUAGAGGAAGAUUUCGAUTT against Cacna1h, which z-score is on record?
A: inactive: -0.613

Q: For CCUCUGGUUGUAAAAACAUTT against Rpp38, which z-score is on record?
A: inactive: -0.682

Q: With GUUCGAAAAGGGAAUGAUATT against Arap2 as the sequence, how does the z-score read?
A: inactive: -0.0156

Q: For GGAGGGAAUCAGAGAACAGTT against Zfp738, which z-score is on record?
A: inactive: 0.789

Q: Which z-score does the source give for GGAUUUUUGCACUCAGUAATT against Olfr1256 here?
A: inactive: 1.26

Q: Which z-score does the source give for CCUUACCAUCGUCUUCAAGTT against Cmklr1 here?
A: inactive: -0.29

Q: For GGCAAACUAUGCCUUCAAGTT against Cib2, which z-score is on record?
A: inactive: -0.157

Q: Which z-score does the source give for GGUACUUUAGACAAGAGAGTT against Cybc1 here?
A: inactive: 1.01

Q: With CGUAGUAGCCACGUCUACUTT against Eci3 as the sequence, how does the z-score read?
A: inactive: 0.404

Q: With GGAUGACAGUGUGAUUGUGTT against Ikzf4 as the sequence, how does the z-score read?
A: inactive: -0.47

Q: With GGGUCCACAUCUUGAGCUUTT against Fxyd7 as the sequence, how does the z-score read?
A: inactive: 0.453

Q: Which z-score does the source give for CCCUAAUAAAUUCCAAAUCTT against H2-Ke6 here?
A: inactive: 1.81

Q: Which z-score does the source give for GGAAGACAGCACCAUGAACTT against Il17f here?
A: inactive: -0.205

Q: With GGAGAGACCUCUGAGAUUGTT against Ephb6 as the sequence, how does the z-score read?
A: inactive: -0.486

Q: Which z-score does the source give for GACUGCUACAAGGUGAAGATT against Mrpl36 here?
A: inactive: -1.22

Q: For GCCCUAGAACUUUUGAAUUTT against Dhx15, which z-score is on record?
A: inactive: 0.162

Q: For CCUUAAGAUCAUUUACCCATT against Mixl1, which z-score is on record?
A: inactive: -0.13

Q: Which z-score does the source give for GUACCUGAAGCCAGUGUUGTT against Prmt3 here?
A: inactive: 1.04

Q: For GGUGUGUAUGAUGCUGGCATT against Olfr1508, which z-score is on record?
A: inactive: -0.0763

Q: With GUGAAGACAUCAGCAGACUTT against Aspdh as the sequence, how does the z-score read?
A: inactive: 0.0149

Q: Which z-score does the source give for CCACUCUAAUGAUGUUUUUTT against Slc46a3 here?
A: inactive: 0.411

Q: With GGCAAAUAAAUGAUCCAAATT against Echs1 as the sequence, how does the z-score read?
A: inactive: 1.97

Q: With GGUAGCAGUAGGAUACUUCTT against Cenpi as the sequence, how does the z-score read?
A: inactive: -0.554

Q: Which z-score does the source give for GGGAUCCGAAUUCUGACCATT against Tlcd2 here?
A: inactive: 0.108

Q: Which z-score does the source give for GGUCAAAUGCACCCGAUUATT against Hoxc10 here?
A: active: 2.44

Q: Which z-score does the source give for GGAGAUGAUUUCCUACUUCTT against Rasgrp2 here?
A: active: 3.47

Q: For GGGACCACUGUGUAUUGACTT against Creld2, which z-score is on record?
A: inactive: -0.0613

Q: For GGUCGAACAGAAGAUUGCUTT against Got1, which z-score is on record?
A: inactive: -1.36

Q: With GCCAAUGGACCACAAACUGTT against Cers6 as the sequence, how does the z-score read?
A: inactive: 0.565

Q: For GGAUUGGGUUACAUACAGATT against Scgb2b2, which z-score is on record?
A: inactive: -0.0731

Q: Which z-score does the source give for GCUGAACUAUAACUUGAAATT against Stat1 here?
A: inactive: -1.08

Q: Which z-score does the source give for GCAGGUGAAAGUGCAGAUCTT against Timm13 here?
A: active: 3.35

Q: For CCACAGACAGUUAUUACUGTT against Adgre1, which z-score is on record?
A: inactive: -1

Q: For GCCACUUCAUAUUUUUGACTT against Ppwd1, which z-score is on record?
A: inactive: 0.000386

Q: Which z-score does the source give for CCCUAGCUAUAAAACUCUCTT against Rabif here?
A: inactive: 1.45

Q: With GGCAUUGAACAAGAAAGAATT against Mef2c as the sequence, how does the z-score read?
A: inactive: -0.94

Q: Which z-score does the source give for AGCUGACUGUAAAAAAACCTT against Fuom here?
A: inactive: 0.19

Q: For GGAUCUAUAUCCAGUAGAGTT against Mief2, which z-score is on record?
A: active: 3.38

Q: With GGAUAAUAGCAGCUUAUACTT against Ccl11 as the sequence, how does the z-score read?
A: inactive: -0.399

Q: For GGAAGAGAGUCUGCCUGGUTT against Acot5, which z-score is on record?
A: inactive: -0.046

Q: With GGGCCAUCACACACCCUAATT against Ctrl as the sequence, how does the z-score read?
A: inactive: 0.314

Q: With GGAAAGAGCACCAAUUUUUTT against Ccr5 as the sequence, how does the z-score read?
A: inactive: 1.43

Q: Which z-score does the source give for CGAACUCAAGAGUGUGGAGTT against Becn1 here?
A: inactive: 0.641

Q: With GGUCCUGUGGAUAACAAUATT against Inha as the sequence, how does the z-score read?
A: inactive: 0.437

Q: With GCAUUACCAAGGCGAUUUUTT against Ren2 as the sequence, how does the z-score read?
A: inactive: 0.191

Q: With GGCACGGAAAUCUUUACAATT against Tmem214 as the sequence, how does the z-score read?
A: inactive: -0.0138

Q: For GGUUCAGUCAAGAAUUGCUTT against Clec4e, which z-score is on record?
A: inactive: 1.68

Q: For GGACUCAAGAGAAAUUCAATT against Nod2, which z-score is on record?
A: active: 2.19

Q: Which z-score does the source give for GGCAACAGGACUGCCAAAUTT against Arhgap12 here?
A: inactive: -0.807

Q: With “GGAGCAUUGCUUCUCUGACTT against 6030445D17Rik” as the sequence, how does the z-score read?
A: inactive: 0.954

Q: For GGGCAUCCAGGAUUAUGUGTT against Vamp5, which z-score is on record?
A: inactive: -0.245

Q: For AGAGAUGGAAAGUGGUUUCTT against Olfr1226, which z-score is on record?
A: inactive: 1.18

Q: For GGUUGAACGAAGGGAAAAATT against Mak16, which z-score is on record?
A: inactive: -1.89

Q: With GGAUCUGAAGGUGAUGUCATT against H2-Q10 as the sequence, how does the z-score read?
A: active: -2.72

Q: For GGGACUUGGAUCGAAUGGATT against Apeh, which z-score is on record?
A: inactive: 0.326

Q: Which z-score does the source give for GCCAAGCUUACUCAGAUUUTT against Mslnl here?
A: active: 2.45

Q: With GCUAGGCAGUGAAGUUGAUTT against Atf4 as the sequence, how does the z-score read?
A: inactive: 0.755

Q: With GGAGAAUGUGUAGCUGUGATT against Lcn9 as the sequence, how does the z-score read?
A: inactive: -1.94

Q: With GCUUGACCCUACACUACAGTT against Olfr1121 as the sequence, how does the z-score read?
A: active: 2.47

Q: With GGCCAACCAAGUCUUCUGATT against Zwilch as the sequence, how does the z-score read?
A: inactive: 0.383

Q: For GGAAAAGUUGCAUUUGGUCTT against Wdr17, which z-score is on record?
A: inactive: -1.02

Q: With UCACUUGUACCAAAAAUGATT against Adcy1 as the sequence, how does the z-score read?
A: inactive: -1.43

Q: Which z-score does the source give for CCAGAAGCCAACUAUCUUUTT against Ppp1cb here?
A: inactive: -0.0929

Q: Which z-score does the source give for GCUCUUUCUAGCCCUUCCCTT against Spry3 here?
A: inactive: -0.915

Q: With CCUGCAUUAGCAUGUUAGGTT against Gfral as the sequence, how does the z-score read?
A: inactive: -0.483

Q: For CACUCUUGAUACAAAUGAGTT against Ifna16, which z-score is on record?
A: inactive: -1.36

Q: With GGCUUGUGGCCUUAUCUGATT against Comtd1 as the sequence, how does the z-score read?
A: inactive: 0.164

Q: With GGAGAACAAAGUGCACUUGTT against Cpsf4l as the sequence, how does the z-score read?
A: inactive: -0.972

Q: For GUAUCAGUGCCAGAGCUACTT against Lor, which z-score is on record?
A: inactive: 0.292

Q: Which z-score does the source give for GGAGUUUACUGAGUUUUAGTT against Prkaca here?
A: active: 4.49

Q: Which z-score does the source give for GGAUUGGAAAUGGCCACAGTT against Rbm12b1 here?
A: inactive: 1.06

Q: Which z-score does the source give for GGAGCUCAUGAUCGUCAAATT against Krt88 here?
A: inactive: 0.87

Q: Which z-score does the source give for GGGCAUAGUGACCAGGUUATT against Fgf14 here?
A: active: 2.67

Q: Which z-score does the source give for GGAAAUGAAAACUUCUGUUTT against Nudt15 here?
A: inactive: 0.19

Q: With CCAAAUGUUUCGUUAAACUTT against Trf as the sequence, how does the z-score read?
A: inactive: -0.189

Q: With GCAGAAGACAUCGUACCAATT against Mcm4 as the sequence, how does the z-score read?
A: inactive: 0.918

Q: Which z-score does the source give for GCAGCUAGUGGUUUCUUUGTT against Stra6 here?
A: inactive: 0.458

Q: Which z-score does the source give for GGGAGGUUACUAUGGAGACTT against Mia here?
A: inactive: 1.68

Q: For CCAUGCUUGAGAGGAAUAATT against Hint3, which z-score is on record?
A: inactive: -0.0161

Q: With GGACAGUUCUUACUUUACATT against Drd2 as the sequence, how does the z-score read?
A: inactive: 1.18

Q: With GCGCAAUGACGAUAAACUCTT against Sema3f as the sequence, how does the z-score read?
A: inactive: 0.534

Q: With GGGAUAAGCAUGCUCAGUGTT against Mrgpra2b as the sequence, how does the z-score read?
A: inactive: -1.42

Q: For GCUUUUCAGUCUCAUAGUGTT against Huwe1, which z-score is on record?
A: inactive: 0.468

Q: Which z-score does the source give for GGCCUUUAUCCGGAACAUATT against Zfp454 here?
A: inactive: 0.168

Q: For GCGGUGACAUCAUGAUCCATT against Bop1, which z-score is on record?
A: inactive: -0.752

Q: For CCAGGCUAUUUGUAUGCUGTT against Usp54, which z-score is on record?
A: inactive: 0.605

Q: Which z-score does the source give for GGACUUCUUCGAUUGUUCUTT against Chchd1 here?
A: inactive: 0.475

Q: Which z-score does the source give for CGAGAAGAUGUGUAUGUCGTT against Mkrn2 here?
A: inactive: -0.571

Q: With GCCGCCCUUACCCUAUUUATT against Tceal1 as the sequence, how does the z-score read?
A: inactive: 1.4

Q: Which z-score does the source give for GCCAAGAGUUUAGCACUUUTT against Acrbp here?
A: inactive: 0.272

Q: With CCCUUAAUAGACUUCUGAUTT against Chmp1b as the sequence, how does the z-score read?
A: inactive: -0.161

Q: Which z-score does the source give for GGAAAGCUUCAGAAUCUAATT against Bckdk here?
A: inactive: -0.365

Q: For GGGAUUAAUAUCAUACCGATT against Slc30a5, which z-score is on record?
A: inactive: -1.33
